Results from the supplement of paper PMC4604168 (melanoma cell lines).
Some of the results follow. Many values rest on one well or one pass, so single values are uncertain.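 Imaging used 1,536-well plates; nuclei positive for cleaved PARP by antibody were divided by total DNA-stained nuclei to yield the apoptosis fraction. Doses for screening kept most cells viable, and cell lines differ markedly in resting and induced cleaved-PARP levels.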

Experiments:
Assay in all cases: cleaved PARP positive nuclei fraction relative to DMSO control; melanoma cells; higher = more apoptosis
Conditions in all cases: library dose: low library concentration; 72 h
WM115 = test system: WM115
WM1716 = test system: WM1716
WM1745 = test system: WM1745
WM3526 = test system: WM3526
WM3619 = test system: WM3619
WM451Lu = test system: WM451Lu

| Compound | cleaved PARP positive nuclei fraction (WM115) [%] | cleaved PARP positive nuclei fraction (WM1716) [%] | cleaved PARP positive nuclei fraction (WM1745) [%] | cleaved PARP positive nuclei fraction (WM3526) [%] | cleaved PARP positive nuclei fraction (WM3619) [%] | cleaved PARP positive nuclei fraction (WM451Lu) [%] |
| --- | --- | --- | --- | --- | --- | --- |
| CCCCCCCCCCCCCCCCCCOP(=O)([O-])OC1CC[N+](C)(C)CC1 [Perifosine] + O=C1NC(=O)/C(=C/c2ccc(-c3ccc(F)cc3O)o2)S1 [AS252424] (first compound 0.4 µM, partner dose 1 µM) | 100 | 110 | 104 | 88.5 | 106 | 88.2 |
| O=C(/C=C/c1cccnc1)NCCCCC1CCN(C(=O)c2ccccc2)CC1 + Cn1nnc2c(C(N)=O)ncn2c1=O [temozolomide] (first compound 0.01 µM, partner dose 2 µM) | 70.2 | 584 | 90.8 | 148 | 102 | 40.3 |
| N#CC[C@H](C1CCCC1)n1cc(-c2ncnc3[nH]ccc23)cn1 [ruxolitinib] + C=C(c1ccc(C(=O)O)cc1)c1cc2c(cc1C)C(C)(C)CCC2(C)C [Bexarotene] (first compound 1 µM, partner dose 2 µM) | 54 | 72 | 93.6 | 81.9 | 98.4 | 130 |
| Cc1ccc(Nc2nccc(N(C)c3ccc4c(C)n(C)nc4c3)n2)cc1S(N)(=O)=O [Pazopanib] + CO[C@@H]1[C@H](N(C)C(=O)c2ccccc2)C[C@H]2O[C@]1(C)n1c3ccccc3c3c4c(c5c6ccccc6n2c5c31)C(=O)NC4 [Midostaurin] (first compound 0.4 µM, partner dose 0.08 µM) | 159 | 159 | 143 | 78 | 100 | 94.6 |
| O=C(Nc1cc(C(F)(F)F)cc(C(F)(F)F)c1)c1cc(Cl)ccc1O + OCCn1cc(-c2cnc3nnn(Cc4ccc5ncccc5c4)c3n2)cn1 [PF04217903] (first compound 0.016 µM, partner dose 1 µM) | 370 | 90.4 | 72 | 57.4 | 97.4 | 21.9 |
| O=C(/C=C/c1cccnc1)NCCCCC1CCN(C(=O)c2ccccc2)CC1 + COc1ccc(COc2ccc(Cc3cnc(N)nc3N)cc2OC)cc1 [GW2580] (first compound 0.01 µM, partner dose 1 µM) | 36.3 | 43.2 | 83.2 | 136 | 110 | 73.7 |
| COc1cc([C@@H]2c3cc4c(cc3[C@@H](O[C@@H]3O[C@@H]5CO[C@@H](C)O[C@H]5[C@H](O)[C@H]3O)[C@H]3COC(=O)[C@H]23)OCO4)cc(OC)c1O [etoposide] + OCc1c[nH]c2ccccc12 [Indole-3-carbinol] (first compound 0.02 µM, partner dose 0.8 µM) | 124 | 78.7 | 99.2 | 156 | 100 | 91.3 |
| N#CC[C@H](C1CCCC1)n1cc(-c2ncnc3[nH]ccc23)cn1 [ruxolitinib] + COC(=O)c1sccc1S(=O)(=O)Nc1ccc(Nc2ccccc2)cc1OC [GSK0660] (first compound 1 µM, partner dose 1 µM) | 56.4 | 94.2 | 87.6 | 130 | 92.2 | 83.3 |
| O=c1[nH]nc(Sc2ncc([N+](=O)[O-])s2)n1-c1ccc2c(c1)OCCO2 + COc1cc2c(Oc3ccc4[nH]c(C)cc4c3F)ncnc2cc1OCCCN1CCCC1 [cediranib] (first compound 0.2 µM, partner dose 0.4 µM) | 98.1 | 284 | 96.2 | 55.7 | 80.5 | 57.7 |
| Cc1cn(-c2cc(NC(=O)c3ccc(C)c(Nc4nccc(-c5cccnc5)n4)c3)cc(C(F)(F)F)c2)cn1 [nilotinib] + Oc1nc(-c2ccc(C(F)(F)F)cc2)nc2c1CSCC2 [XAV939] (first compound 0.2 µM, partner dose 2 µM) | 108 | 154 | 115 | 64.2 | 108 | 63.1 |
| Cc1cc(Nc2cc(N3CCN(C)CC3)nc(Sc3ccc(NC(=O)C4CC4)cc3)n2)n[nH]1 [Tozasertib] + Cn1c(=O)n(-c2ccc(C(C)(C)C#N)cc2)c2c3cc(-c4cnc5ccccc5c4)ccc3ncc21 [NVP-BEZ235] (first compound 0.006 µM, partner dose 0.004 µM) | 46.3 | 38.7 | 98.3 | 46.7 | 97.4 | 77.5 |
| CC[C@]1(O)C[C@H]2CN(CCc3c([nH]c4ccccc34)[C@@](C(=O)OC)(c3cc4c(cc3OC)N(C=O)[C@H]3[C@@](O)(C(=O)OC)[C@H](OC(C)=O)[C@]5(CC)C=CCN6CC[C@]43[C@@H]65)C2)C1 [vincristine] + CC(C)C[C@H](NC(=O)[C@H](Cc1ccccc1)NC(=O)c1cnccn1)B(O)O [Bortezomib] (first compound 0.0001 µM, partner dose 0.001 µM) | 747 | 235 | 145 | 301 | 319 | 90.4 |
| Cc1ccc(Nc2nccc(N(C)c3ccc4c(C)n(C)nc4c3)n2)cc1S(N)(=O)=O [Pazopanib] + CN1CCN(c2ccc3nc(-c4c(N)c5c(F)cccc5[nH]c4=O)[nH]c3c2)CC1 [Dovitinib] (first compound 0.4 µM, partner dose 0.1 µM) | 81.2 | 69.3 | 107 | 45.3 | 215 | 67.8 |
| Cc1ccc(Nc2nccc(N(C)c3ccc4c(C)n(C)nc4c3)n2)cc1S(N)(=O)=O [Pazopanib] + Oc1nc(-c2ccc(C(F)(F)F)cc2)nc2c1CSCC2 [XAV939] (first compound 0.4 µM, partner dose 2 µM) | 96.3 | 287 | 103 | 40 | 144 | 18.3 |
| CC[C@]1(O)C[C@H]2CN(CCc3c([nH]c4ccccc34)[C@@](C(=O)OC)(c3cc4c(cc3OC)N(C=O)[C@H]3[C@@](O)(C(=O)OC)[C@H](OC(C)=O)[C@]5(CC)C=CCN6CC[C@]43[C@@H]65)C2)C1 [vincristine] + O=c1[nH]nc(Sc2ncc([N+](=O)[O-])s2)n1-c1ccc2c(c1)OCCO2 [BI78D3] (first compound 0.0001 µM, partner dose 0.2 µM) | 953 | 583 | 288 | 306 | 156 | 41.4 |
| Cc1cc(Nc2cc(N3CCN(C)CC3)nc(Sc3ccc(NC(=O)C4CC4)cc3)n2)n[nH]1 [Tozasertib] + CCCCCCCCCCCC1=C(O)C(=O)C=C(O)C1=O [Embelin] (first compound 0.006 µM, partner dose 1.2 µM) | 104 | 104 | 87.5 | 64.2 | 85 | 34.1 |
| Cc1ccc(Nc2nccc(N(C)c3ccc4c(C)n(C)nc4c3)n2)cc1S(N)(=O)=O [Pazopanib] + c1cc(-c2cnn3cc(-c4ccc(OCCN5CCCCC5)cc4)cnc23)ccn1 [Dorsomorphin] (first compound 0.4 µM, partner dose 0.4 µM) | 72.7 | 44.8 | 102 | 103 | 118 | 36.6 |
| O=C(Nc1cc(C(F)(F)F)cc(C(F)(F)F)c1)c1cc(Cl)ccc1O + O=C(Nc1cccc(Cl)c1)Nc1ncc(CCNc2ncnc3ccsc23)s1 [SNS314] (first compound 0.016 µM, partner dose 0.0008 µM) | 116 | 75.8 | 98.8 | 55.9 | 212 | 60.3 |
| O=C(/C=C/c1cccnc1)NCCCCC1CCN(C(=O)c2ccccc2)CC1 + CO[C@@H]1[C@H](N(C)C(=O)c2ccccc2)C[C@H]2O[C@]1(C)n1c3ccccc3c3c4c(c5c6ccccc6n2c5c31)C(=O)NC4 [Midostaurin] (first compound 0.01 µM, partner dose 0.08 µM) | 285 | 125 | 225 | 62.4 | 151 | 157 |
| CC[C@]1(O)C[C@H]2CN(CCc3c([nH]c4ccccc34)[C@@](C(=O)OC)(c3cc4c(cc3OC)N(C=O)[C@H]3[C@@](O)(C(=O)OC)[C@H](OC(C)=O)[C@]5(CC)C=CCN6CC[C@]43[C@@H]65)C2)C1 [vincristine] + Nc1ncn([C@H]2C[C@H](O)[C@@H](CO)O2)c(=O)n1 [decitabine] (first compound 0.0001 µM, partner dose 0.1 µM) | 1290 | 207 | 98.8 | 32.3 | 102 | 114 |
| COc1cc([C@@H]2c3cc4c(cc3[C@@H](O[C@@H]3O[C@@H]5CO[C@@H](C)O[C@H]5[C@H](O)[C@H]3O)[C@H]3COC(=O)[C@H]23)OCO4)cc(OC)c1O [etoposide] + Cc1cn(-c2cc(NC(=O)c3ccc(C)c(Nc4nccc(-c5cccnc5)n4)c3)cc(C(F)(F)F)c2)cn1 [nilotinib] (first compound 0.02 µM, partner dose 0.2 µM) | 85.5 | 98.1 | 115 | 255 | 104 | 98.7 |
| Cc1ccc(Nc2nccc(N(C)c3ccc4c(C)n(C)nc4c3)n2)cc1S(N)(=O)=O [Pazopanib] + Cn1c(Nc2ccc(C(F)(F)F)cc2)nc2cc(Oc3ccnc(-c4ncc(C(F)(F)F)[nH]4)c3)ccc21 [CHIR265] (first compound 0.4 µM, partner dose 0.08 µM) | 324 | 217 | 111 | 52.1 | 103 | 25.9 |
| Cc1cn(-c2cc(NC(=O)c3ccc(C)c(Nc4nccc(-c5cccnc5)n4)c3)cc(C(F)(F)F)c2)cn1 [nilotinib] + OCCn1cc(-c2cnc3nnn(Cc4ccc5ncccc5c4)c3n2)cn1 [PF04217903] (first compound 0.2 µM, partner dose 1 µM) | 59.9 | 18.7 | 78.7 | 116 | 91.8 | 78 |
| CCCCCCCCCCCCCCCCCCOP(=O)([O-])OC1CC[N+](C)(C)CC1 [Perifosine] + CCCS(=O)(=O)Nc1ccc(F)c(C(=O)c2c[nH]c3ncc(Cl)cc23)c1F [PLX4720] (first compound 0.4 µM, partner dose 0.08 µM) | 80.1 | 31 | 445 | 88.6 | 151 | 54 |

Whole records, quoted from the list. Order of values: cleaved PARP positive nuclei fraction (WM115) [%]	cleaved PARP positive nuclei fraction (WM1716) [%]	cleaved PARP positive nuclei fraction (WM1745) [%]	cleaved PARP positive nuclei fraction (WM3526) [%]	cleaved PARP positive nuclei fraction (WM3619) [%]	cleaved PARP positive nuclei fraction (WM451Lu) [%]
CCCCCCCCCCCCCCCCCCOP(=O)([O-])OC1CC[N+](C)(C)CC1 [Perifosine] + O=C1NC(=O)/C(=C/c2ccc(-c3ccc(F)cc3O)o2)S1 [AS252424] (first compound 0.4 µM, partner dose 1 µM) as listed: 100	110	104	88.5	106	88.2
CCCCCCCCCCCCCCCCCCOP(=O)([O-])OC1CC[N+](C)(C)CC1 [Perifosine] + CCCS(=O)(=O)Nc1ccc(F)c(C(=O)c2c[nH]c3ncc(Cl)cc23)c1F [PLX4720] (first compound 0.4 µM, partner dose 0.08 µM) as listed: 80.1	31	445	88.6	151	54
